Data: PMC10170703
No constants are given. Whether binding was seen depends on the method and setting. Sequences can lack the tags named with a protein.

Legend:
Experiment in all cases: two-hybrid; GAL4-based, pGADT7 preys and pGBKT7 baits in Y2HGold; growth on SD/-LT and SD/-LTHA
[1] = target: T1, BD-L6 TIR domain (residues 29-248) (UniProt Q40253)
T1 sequence: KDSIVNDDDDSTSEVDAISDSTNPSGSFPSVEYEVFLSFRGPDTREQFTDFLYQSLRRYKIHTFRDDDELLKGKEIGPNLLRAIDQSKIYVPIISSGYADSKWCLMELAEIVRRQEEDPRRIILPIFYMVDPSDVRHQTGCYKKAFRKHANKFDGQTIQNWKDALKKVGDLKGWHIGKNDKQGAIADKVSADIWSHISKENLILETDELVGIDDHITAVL

[2] = target: T2, BD-RPP1_NdA TIR domain (residues 1-254) (A. thaliana) (UniProt F4J339)
T2 sequence: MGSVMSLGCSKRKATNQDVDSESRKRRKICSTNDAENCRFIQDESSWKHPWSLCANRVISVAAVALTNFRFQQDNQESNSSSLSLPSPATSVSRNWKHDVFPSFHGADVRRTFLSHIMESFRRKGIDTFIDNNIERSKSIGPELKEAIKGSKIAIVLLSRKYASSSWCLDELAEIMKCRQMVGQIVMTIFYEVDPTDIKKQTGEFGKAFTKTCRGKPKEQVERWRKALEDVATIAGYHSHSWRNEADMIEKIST

[3] = target: T3, BD-RPS4 TIR domain (residues 1-183) (UniProt Q9XGM3)
T3 sequence: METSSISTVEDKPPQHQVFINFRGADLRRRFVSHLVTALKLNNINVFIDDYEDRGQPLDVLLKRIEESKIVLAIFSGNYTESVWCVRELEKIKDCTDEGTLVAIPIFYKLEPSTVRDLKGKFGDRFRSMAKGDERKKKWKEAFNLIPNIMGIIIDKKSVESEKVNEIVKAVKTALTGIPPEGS

Measured: binding

AD-TIRP1 (G. hirsutum TIR domain partner protein 1, two-hybrid prey) (Gossypium hirsutum)
no binding: all assays above
